These are yes or no findings as the source states them, for the method shown. Some results given as binding are weak or reduced against the parent protein; the word gives no strength.
Biological target: DLL3 purified protein (human) (UniProt Q9NYJ7)
Experiment: ELISA, plate coated with 1 ug/ml purified DLL3, serially diluted antibody, detection with HRP-conjugated anti-human IgG1 reporter mAb, TMB, OD450

Sequences of proteins named here, by UniProt entry; tags and fusion partners are left off. Residues count along the entry.
UniProt Q9NYJ7, residues 27-492: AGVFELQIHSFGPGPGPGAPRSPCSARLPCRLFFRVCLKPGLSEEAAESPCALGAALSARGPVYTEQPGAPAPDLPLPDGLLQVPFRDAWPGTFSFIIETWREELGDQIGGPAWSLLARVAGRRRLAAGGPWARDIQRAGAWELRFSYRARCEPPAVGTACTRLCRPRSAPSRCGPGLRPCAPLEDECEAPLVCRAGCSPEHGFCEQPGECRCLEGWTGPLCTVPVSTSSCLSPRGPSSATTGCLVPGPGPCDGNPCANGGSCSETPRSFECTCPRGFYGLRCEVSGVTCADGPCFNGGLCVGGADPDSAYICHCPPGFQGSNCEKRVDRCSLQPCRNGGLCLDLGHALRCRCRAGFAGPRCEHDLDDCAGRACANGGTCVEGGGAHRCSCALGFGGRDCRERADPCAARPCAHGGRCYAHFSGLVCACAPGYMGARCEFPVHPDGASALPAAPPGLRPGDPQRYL

binding: binds
B1: hSC16.56 (antibody, human IgG1, kappa, V domains shown)
VH: QVQLVQSGAEVKKPGASVKVSCKASGYTFTNYGMNWVRQAPGQGLEWMGWINTYTGEPTYADDFKGRVTMTTDTSTSTAYMELRSLRSDDTAVYYCARIGDSSPSDYWGQGTLVTVSS
VL: EIVMTQSPATLSVSPGERATLSCKASQSVSNDVVWYQQKPGQAPRLLIYYASNRYTGIPARFSGSGSGTEFTLTISSLQSEDFAVYYCQQDYTSPWTFGQGTKLEIKR
notes: Native human IgG1/kappa; also called humanized SC16.56; humanized anti-DLL3 antibody hSC16.56

Reference: patent US20180346565A1 (AbbVie / Abbott, published 2018)
